Measurements taken from publication PMC9468604.
These are yes or no findings as the source states them, for the method shown. Some binding calls cover weakened binding; strength is not graded here. Sequences can lack the tags named with a protein.

Target: T1, PATZ2 BTB domain (NLS-tagGFP-BTB or tagRFP-BTB fusion) (human), O43167
T1 chain: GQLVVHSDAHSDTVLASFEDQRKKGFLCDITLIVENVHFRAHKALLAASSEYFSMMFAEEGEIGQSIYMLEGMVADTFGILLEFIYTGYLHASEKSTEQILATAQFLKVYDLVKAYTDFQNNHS
Assay: two-hybrid; fluorescent two-hybrid (F2H) in live BHK-1 cells with a genomic LacO array; the tagGFP-BTB fusion is held at the LacO focus by GBP-LacI, a co-localised focus of the tagRFP-BTB fusion is scored by fluorescence microscopy 24 h after transfection; colocalization = percentage of GFP foci-positive cells also positive for RFP foci
Settings: remark: other sources report otherwise

B1: PATZ2 BTB domain (NLS-tagGFP-BTB or tagRFP-BTB fusion), O43167 10-133 (domain or fragment)
chain: GQLVVHSDAHSDTVLASFEDQRKKGFLCDITLIVENVHFRAHKALLAASSEYFSMMFAEEGEIGQSIYMLEGMVADTFGILLEFIYTGYLHASEKSTEQILATAQFLKVYDLVKAYTDFQNNHS
binding: binds
